Laboratory results reported in patent US9499823B2, “Constructs expressing chimeric receptors and use thereof for the controlled activation of defence response to pathogens in plants” (priority 2009, dated 2016).
Not every detail of the peptide structures is certain; ends, links or a residue may be inferred. Where no end group is shown, it is not given here.

How the values were obtained:
[1] = tested on: WAK1 transcript; details: 3 h; cited from earlier work
[2] = tested on: ethylene biosynthesis in tobacco leaves; assay: Induction of ethylene biosynthesis in agroinfiltrated tobacco leaf explants; assay type: cell-based, Nicotiana tabacum; details: non-infiltrated (SR1) and mock agroinfiltrated explants, 2 h
Method: F) Induction of ethylene biosynthesis in agroinfiltrated tobacco leaves expressing the fluorescent EFR, FLS2, TMC, eJMC and eJMC^Y859A. NC: negative control, represented by agroinfiltrated leaf tissues expressing fluorescent EFR or FLS2 and elicited with flg22 or elfl8, respectively. Results are averages±standard error (n=3).
Excised infiltrated leaf sectors were stimulated for 2 h with water or the elicitor ([…] and 100 μg/ml for OGs). Values are means±s.e.m. (N=3).
E) Induction of ethylene biosynthesis in agroinfiltrated tobacco leaves expressing EFR, WAK1, WEG and EWAK. Each construct was stimulated for 2 h with elfl8 (10 μM) or OGs (100 μg/mL). […]
(A) Induction of ethylene biosynthesis in agroinfiltrated tobacco explants expressing EFR, WAK1, WEG and EWAK. […] Accumulation of At3g22270 and At4g37640 transcripts was analysed by semi-quantitative PCR, using the UBQ5 gene for normalization. […]
Approximately 150 mg of tobacco agroinfiltrated leaf were cut in small slices and extensively washed with sterile distilled water. […] 450 μl headspace samples were withdrawn from the vial after 2 h treatment and analyzed by gas chromatography-mass spectrometry using an Agilent 6850A gas chromatograph coupled to a 5973N quadrupole mass selective detector (Agilent Technologies, Palo Alto, Calif., USA). […]

[3] = tested on: Arabidopsis ecotype Wassilewskija (Ws-0) leaves; assay: H2O2 accumulation (DAB staining) and callose deposition (aniline blue) in stably transformed Arabidopsis Ws-0; assay type: cell-based, Arabidopsis thaliana; details: flg22 1 μM or elfl8 10 μM, 1 h
Method: A) Histochemical analysis of defense responses upon 1 h of treatment with H2O, flg22 (1 μM) or elfl8 (10 μM).
3,3′-diaminobenzidine (DAB) staining, callose deposition and gene resistance analysis were assayed as described (Galletti et al., 2008). For measuring active oxygen species released by tobacco agroinfiltrated plants after elicitor treatment, the authors used a modified luminol-dependent assay (Gomez et al., 1999). Slices, corresponding to approximately 30 mg fresh weight, were transferred to assay tubes containing 1 μM flg22 or 10 μM elfl8 in aqueous solution supplied with 40 μM luminol (SIGMA). Chemo-luminescence was measured in a liquid scintillation counter (LS-6500, Beckman) after 5 and 15 min upon addition of elicitors.
Fluorescent eJMC and FLS2 were also stably expressed in transgenic Arabidopsis ecotype Wassilewskija (Ws-0), which carries EFR but lacks a flg22 perception system (Gomez-Gomez et al., 1999, Bauer et al., 2001). Transformed T1 plants expressing the proteins, named eJMC plants and FLS2 plants, respectively, were selected by confocal microscopy analysis of adult rosette leaves. […] Fluorescence was detected only in adult rosette leaves, likely due to a low expression level of the receptor at the different developmental stages.

QRLSTGSRINSAKDDAAGLQIA [flg22]
regulation of the WAK1 transcript [1]: repression
ethylene levels in response to elicitor in tobacco explants not expressing a receptor construct [2]: slightly increased
H2O2 production and callose deposition in untransformed Ws-0 plants [3]: not in untransformed Ws-0 plants
